Laboratory results: PMC2784748
No constants are given. Whether binding was seen depends on the method and setting. Binding seen in cells or lysates may run through a third protein. Some entries that bind do so weakly or less than the wild type.

Amino acid sequences for entries named in this document (tags omitted).
UniProt Q60749: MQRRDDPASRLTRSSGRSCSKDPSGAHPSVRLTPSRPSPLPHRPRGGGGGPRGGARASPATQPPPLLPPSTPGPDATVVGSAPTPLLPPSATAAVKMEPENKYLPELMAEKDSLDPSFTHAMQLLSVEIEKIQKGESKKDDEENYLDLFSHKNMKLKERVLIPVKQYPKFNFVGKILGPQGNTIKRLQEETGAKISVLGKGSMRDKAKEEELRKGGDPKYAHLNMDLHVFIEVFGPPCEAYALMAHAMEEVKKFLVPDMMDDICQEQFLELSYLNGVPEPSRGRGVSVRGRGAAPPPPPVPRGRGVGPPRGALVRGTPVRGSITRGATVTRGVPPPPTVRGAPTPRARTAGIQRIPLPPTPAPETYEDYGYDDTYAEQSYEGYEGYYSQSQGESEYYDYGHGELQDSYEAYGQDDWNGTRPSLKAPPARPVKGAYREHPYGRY

Target: Sam68 (endogenous in NIH3T3 cells) (mouse (endogenous in NIH3T3)) (UniProt Q60749)
Assay: co-IP; LNCaP and NIH3T3 whole cell extracts side by side; IP with anti-Sam68 antisera or normal rabbit IgG, Western analysis for Sam68 and hnRNP L; in the presence of Benzonase nuclease

B1: hnRNP L (endogenous in NIH3T3 cells) (protein, UniProt Q8R081 1-586)
chain: MSRRLLPRAEKRRRRLEQRQQPDEQLRRAGAMVKMAAAGGGGGGGRYYGGGNEGGRAPKRLKTENAGDQHGGGGGGGSGAAGGGGGENYDDPHKTPASPVVHIRGLIDGVVEADLVEALQEFGPISYVVVMPKKRQALVEFEDVLGACNAVNYAADNQIYIAGHPAFVNYSTSQKISRPGDSDDSRSVNSVLLFTILNPIYSITTDVLYTICNPCGPVQRIVIFRKNGVQAMVEFDSVQSAQRAKASLNGADIYSGCCTLKIEYAKPTRLNVFKNDQDTWDYTNPNLSGQGDPGSNPNKRQRQPPLLGDHPAEYGGPHGGYHSHYHDEGYGPPPPHYEGRRMGPPVGGHRRGPSRYGPQYGHPPPPPPPPDYGPHADSPVLMVYGLDQSKMNCDRVFNVFCLYGNVEKVKFMKSKPGAAMVEMADGYAVDRAITHLNNNFMFGQKMNVCVSKQPAIMPGQSYGLEDGSCSYKDFSESRNNRFSTPEQAAKNRIQHPSNVLHFFNAPLEVTEENFFEICDELGVKRPTSVKVFSGKSERSSSGLLEWDSKSDALETLGFLNHYQMKNPNGPYPYTLKLCFSTAQHAS
binding: binds
